Data on one substance can be found in doi:10.1101/2024.06.07.596542.

Amino acid sequences for entries named in this document (tags omitted).
UniProt Q01196: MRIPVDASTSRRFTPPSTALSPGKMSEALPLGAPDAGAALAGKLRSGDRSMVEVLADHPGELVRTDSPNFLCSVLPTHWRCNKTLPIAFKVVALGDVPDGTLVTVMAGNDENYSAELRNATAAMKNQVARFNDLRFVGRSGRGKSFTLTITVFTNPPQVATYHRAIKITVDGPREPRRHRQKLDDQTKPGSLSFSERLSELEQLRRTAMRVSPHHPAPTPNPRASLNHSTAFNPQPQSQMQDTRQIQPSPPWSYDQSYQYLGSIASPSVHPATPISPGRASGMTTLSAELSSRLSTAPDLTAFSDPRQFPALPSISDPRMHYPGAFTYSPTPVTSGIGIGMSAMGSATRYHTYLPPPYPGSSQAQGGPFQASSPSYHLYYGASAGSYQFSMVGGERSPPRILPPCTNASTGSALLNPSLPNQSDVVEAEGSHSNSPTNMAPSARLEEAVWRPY
UniProt P32519: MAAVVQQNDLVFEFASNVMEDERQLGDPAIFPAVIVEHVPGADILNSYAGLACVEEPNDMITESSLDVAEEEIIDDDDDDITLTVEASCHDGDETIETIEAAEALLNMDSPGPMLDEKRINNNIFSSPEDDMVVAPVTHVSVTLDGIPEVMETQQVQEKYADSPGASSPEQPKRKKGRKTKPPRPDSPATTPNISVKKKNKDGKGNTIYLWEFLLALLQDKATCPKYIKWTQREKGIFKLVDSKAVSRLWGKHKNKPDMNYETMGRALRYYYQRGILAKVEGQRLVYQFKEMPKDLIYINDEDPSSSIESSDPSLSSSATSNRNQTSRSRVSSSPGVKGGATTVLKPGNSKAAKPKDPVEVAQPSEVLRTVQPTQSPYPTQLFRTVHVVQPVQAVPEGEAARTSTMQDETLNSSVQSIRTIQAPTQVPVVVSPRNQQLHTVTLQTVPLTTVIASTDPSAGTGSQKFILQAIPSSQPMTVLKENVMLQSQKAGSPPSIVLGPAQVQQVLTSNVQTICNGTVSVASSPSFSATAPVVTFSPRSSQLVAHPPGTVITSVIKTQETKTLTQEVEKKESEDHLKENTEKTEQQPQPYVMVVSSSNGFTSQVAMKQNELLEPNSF

Results are given in words; binding and its absence hold for the method and conditions named. Binding seen in cells or lysates may run through a third protein. Some binding calls cover weakened binding; strength is not graded here.

This assay concerns the target RUNX1 (human (endogenous in CD34+ HSPCs)) (UniProt Q01196). In words: co-IP.

For ELF1 (from UniProt P32519 1-619), the binding result was “binds”.
